From PubChem BioAssay AID504594 (Broad Institute, 2011)
The whole screen tested about 2,000 compounds, of which fewer than 10 were called active.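 How the source made its calls: active means growth inhibition of at least 75% in every replicate, which also brings the mean inhibition to 75% or more; inconclusive means mean inhibition 75% or more but some replicate under 75%; inactive means the rest.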 Some of the results follow.

assay: growth inhibition of PfHsp90-dependent yeast, primary screen, antimalarial PfHsp90 inhibitor project, S. cerevisiae, BacTiter-Glo luminescence (AID 504594);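 further: 0% = DMSO neutral control wells and 100% = 20 µM radicicol control wells; higher value means stronger growth inhibition because the sign is flipped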; conditions: S. cerevisiae expressing PfHsp90, BacTiter-Glo growth, 48 h; at 9.4 µM; hits give high values

Growth inhibition, inactive:
Cc1nc2c(c3c1[nH]c1ccccc13)C(=O)CC(C)(C)C2 -21.2%, CN(C)c1cc(NC(=O)CN2CCOCC2)c2ccccc2n1 -17.6%, CC(C)c1cc(=O)oc2c3c4c(cc12)CCCN4CCC3 7.18%, CSCC[C@H](NC(=O)OC(C)(C)C)C(=O)N1CCC(C(=O)N[C@@H](C)C(=O)O)CC1 -11.6%, COc1cc2c(cc1O)CCN(C(=O)c1ccco1)C2C (stereo not given) 3.62%, COc1ccc(/C=C2\CC/C(=C\c3ccc(OC)c(OC)c3)C2=O)cc1OC -15.8%, CCC(C)NCCOc1ccccc1C (stereo not given) -2.12%, NNC(=O)c1ccncc1 10.4%, COc1cc(NC(=S)NC(=O)c2cccs2)ccc1NC(=O)C(C)C 0.319%, COc1ccccc1OS(=O)(=O)c1ccc(NC(C)=O)cc1 -3.86%, CC12CCC(C(=O)N3CCCCC3)([C@H](Br)C1=O)C2(C)C (stereo not given in full) -1.37%, COc1ccc(C2C3C(C)=NN=C3CC(C)(O)C2C(C)=O)cc1 (stereo not given) -3.73%, COc1cccc(OCc2nnc(-c3cccs3)o2)c1 -11.4%, CC12CCC(C(=O)NCc3ccc4c(c3)OCO4)(CC1=O)C2(C)C (stereo not given) 11.3%, CC(=O)Nc1ccc(CN2CCN(C3CCCCC3)C(CCO)C2)cc1 (stereo not given) 3.54%, CC1(C)O[C@@H]2C[C@H]3[C@@H]4C[C@H](F)C5=CC(=O)CC[C@]5(C)[C@H]4[C@@H](O)C[C@]3(C)[C@]2(C(=O)CO)O1 8.56%, COCCCN1C(=O)/C(=C\c2cccs2)C(C(=O)OC)=C1C -4.85%, CN1C(=O)NC(c2ccc(O)cc2)C2=C1CN(c1cccc3ccccc13)C2=O (stereo not given) 11.9%, Cc1ccccc1N1C(N)=NC(N)=NC1(C)C -2.95%, CCCCc1oc2ccccc2c1C(=O)c1cc(I)c(OCCN(CC)CC)c(I)c1 -7.73%, O=C(O)c1cccnc1 18.4%, Cc1cccc(N(C)C(=S)Oc2ccc3ccccc3c2)c1 5.35%, COc1ccc(C(=O)Nc2ccccc2C(=O)NC(Cc2c[nH]c3ccccc23)C(=O)O)cc1 (stereo not given) 1.89%, O=C(O)c1cc2cc(F)ccc2[nH]1 4.76%, Cc1nonc1CN(C)C(=O)c1ccc(OC2CCN(C(=O)c3cccnc3)CC2)cc1 -8.83%, NCCc1ccc(O)c(O)c1 -13.7%, CC(=O)c1cn(C)c(=O)[nH]c1=O 10.3%, CC1=CC2(O)OCCN(CCO)C2=CC1=O (stereo not given) -3.33%, COc1cccc(N2CC34C=CC(O3)C(C(=O)O)C4C2=O)c1 (stereo not given) -1.36%, C[C@H](CS)C(=O)N1CCC[C@H]1C(=O)O -1.46%, COc1ccc(/C=C(/C#N)c2cccnc2)cc1OC -3.57%, Cc1c(CCOC(=O)CC23CC4CC(CC(C)(C4)C2)C3)sc[n+]1Cc1ccc([N+](=O)[O-])cc1 5.74%, CC(=O)OCC(=O)[C@@]1(O)CC[C@H]2[C@@H]3CCC4=CC(=O)C=C[C@]4(C)[C@H]3[C@@H](O)C[C@@]21C 1.99%, COC(=O)c1ccc(NC(=O)c2ccccc2SC)cc1 -6.84%, C[C@]12CC[C@@H]3c4ccc(O)cc4C(=O)C[C@H]3[C@@H]1CC[C@@H]2O -8.64%, CC(=O)C1=C(O)C(=O)OC1c1ccc(C)cc1 (stereo not given) 14.7%, COc1ccc(OC)c(C(=O)c2coc3ccc(O)cc23)c1 -5.76%, NS(=O)(=O)c1cc2c(cc1Cl)NC(C1C[C@H]3C=C[C@@H]1C3)NS2(=O)=O (stereo not given in full) 8.58%, C[C@H](NC(=O)C1(c2ccccc2)CCN(C(=O)[C@H]2CSCN2C(=O)OC(C)(C)C)CC1)C(=O)O -9.59%, COc1cc(CO)ccc1OCc1nnnn1-c1ccc(C)cc1 0.995%, CCCCOc1ccc(C(=O)CCN2CCCCC2)cc1 -0.129%, OC(CCN1CCCC1)(c1ccccc1)C1CCCCC1 (stereo not given) 2.6%, COCCNC(=O)CSc1ccc(Cl)cc1 -5.34%, CC(C)(C)c1ccc(/C=C/C(=O)N2CCCCC2)cc1 4.98%, Cc1ccc(C(=O)COC(=O)c2cnccn2)cc1[N+](=O)[O-] -1.07%, NC12CC3CC(C1)CC(O)(C3)C2 -4.05%, COc1cc(OC)cc(C(=O)N[C@@H](CCSC)c2nc3ccccc3[nH]2)c1 -0.625%, Cc1[nH]c2ccccc2c1C(=O)CN1CCCC1 -6.07%, COc1cc2c(cc1OC)CN(Cc1ccc(C)s1)CC2 -0.416%, CC(C)C1Cc2[nH]c(=O)c(C(=O)O)cc2CO1 (stereo not given) -4.36%, CC1(C)Cc2nc3sc4c(=O)n(CC(N)=O)cnc4c3cc2CO1 -2.88%, NC[C@H]1O[C@H](O[C@H]2[C@H](O)[C@@H](O[C@H]3O[C@H](CO)[C@@H](O)[C@H](N)[C@H]3O)[C@H](N)C[C@@H]2N)[C@H](N)C[C@@H]1O 2.83%, COc1cc(-c2nnc(-c3cccs3)o2)cc(OC)c1OC -0.327%, COC(=O)c1cc(COc2ccc3ccc(=O)oc3c2)c(C)o1 -0.939%, Cc1cc(C(C)(C)C)cc(C)c1CC1=NCCN1 2.82%, CCN(CCCCOC(=O)c1ccc(OC)c(OC)c1)C(C)Cc1ccc(OC)cc1 (stereo not given) 8.11%, C[C@@H]1C[C@H]2[C@@H]3CCC4=CC(=O)C=C[C@]4(C)[C@@]3(F)[C@@H](O)C[C@]2(C)[C@H]1C(=O)CO 0.178%, COc1cc2nc(N3CCN(C(=O)C4COc5ccccc5O4)CC3)nc(N)c2cc1OC (stereo not given) -1.97%, COc1cc(CNCCc2c[nH]c3ccccc23)cc(Cl)c1OCC(N)=O -1.9%, FC(F)(F)c1ccc(-c2noc(CN3CCCN(C4CCCCC4)CC3)n2)cc1 11%, COc1ccc(Cl)cc1C(=O)NCCc1ccc(S(=O)(=O)NC(=O)NC2CCCCC2)cc1 1.64%, CC(=O)OCC(=O)C1=CCC2C3CCC4=CC(=O)C=CC4(C)C3(F)C(OC(C)=O)CC12C (stereo not given) 11.1%, CC#C[C@]1(O)CC[C@H]2[C@@H]3CCC4=CC(=O)CCC4=C3[C@@H](c3ccc(N(C)C)cc3)C[C@@]21C -5.19%, COc1ccc(CCNC(=O)CC(c2ccccc2)c2cccc(C)c2O)cc1OC (stereo not given) -1.09%, COc1ccc(/C=C2\CCc3ccccc3C2=O)c(OC)c1OC -0.439%, CCOC(=O)C1=C(N)Oc2c(c(=O)[nH]c3ccccc23)C1c1ccccc1 (stereo not given) 4.35%, CC1(C)O[C@@H]2C[C@H]3[C@@H]4C[C@H](F)C5=CC(=O)C=C[C@]5(C)[C@@]4(F)[C@@H](O)C[C@]3(C)[C@]2(C(=O)CO)O1 -12.5%, Cc1cc(C)nc(NS(=O)(=O)c2ccc(N)cc2)n1 6.5%, O=C(c1ccc(Cl)cc1)C1CCCN(C(=O)/C=C/c2ccccn2)C1 (stereo not given) 2.71%, Cc1ccc(C(=O)Nc2ccc(O)cc2C(=O)O)cc1C 4.07%, COc1ccc(C2OC(=O)Cc3cc(OC)c(OC)cc32)cc1 (stereo not given) -17.5%, CC(/C=C1\SC(=O)N(CCCC(=O)O)C1=O)=C\c1ccccc1 7.7%, CCc1cc(/C(Cc2ccccn2)=N\O)c(O)cc1O 13.6%, CCc1cc(-c2[nH]ncc2-c2ccc3c(c2)OCO3)c(O)cc1O -0.444%, O=C(O)c1ccc(N2C(=O)/C(=C\c3ccccc3)N=C2c2ccccc2)cc1 17.7%, COC(=O)c1ccc(CC(=O)c2ccc(O)cc2O)o1 5.84%, CO[C@H]1C=CO[C@@]2(C)Oc3c(C)c(O)c4c(O)c(c(C=NN5CCN(C)CC5)c(O)c4c3C2=O)NC(=O)C(C)=CC=C[C@H](C)[C@H](O)[C@@H](C)[C@@H](O)[C@@H](C)[C@H](OC(C)=O)[C@@H]1C -2.65%, CC(=O)Nc1nnc(S(N)(=O)=O)s1 -1.68%, CC(C)Oc1ccc2c(=O)c(-c3ccccc3)coc2c1 8.58%, COc1cc2[nH]c3c(=O)n(CCN4CCOCC4)cnc3c2cc1OC 6.57%, CC(C)N(C(=O)Cc1ccccc1[N+](=O)[O-])C(C)C 4.35%, COc1cc(/C=C/C(=O)N2CCCC2)cc(OC)c1OC 2.42%, COc1ccc(S(=O)(=O)N2CCN(C(=O)COc3ccc4c(C)cc(=O)oc4c3)CC2)cc1 -0.116%, CC(=O)C1=C(O)C(=O)N(Cc2cccnc2)C1c1ccc(C(C)C)cc1 (stereo not given) -3.02%, COc1cc2cc(C)nc(Cc3cccc4ccccc34)c2cc1OC 6.84%, CCN(CC)CCNC(=O)c1ccc(N)cc1 13%, C[N+](C)(C)CCCC(=O)c1ccc2c(c1)OCO2 11.2%, OC[C@@H](O)[C@@H](O[C@H]1O[C@H](CO)[C@@H](O)[C@H](O)[C@H]1O)[C@H](O)[C@@H](O)CO -11.2%, COC(=O)c1ccccc1OCCOCCOc1cccc2ccc(C)nc12 -4.21%, O=C(CCCN1C(=O)/C(=C\c2cccc(Br)c2)SC1=S)Nc1cccnc1 7.47%
